From the supplement of paper PMC12067093, “Discovery and optimisation of a covalent ligand for TRIM25 and its application to targeted protein ubiquitination” (Chemical Science, 2025)
The list shows a part of the results.

By UniProt entry, the sequences of proteins in these tests, tags left out. Where a name states a change or a piece, a line headed by the entry shows the natural chain unless it says otherwise.
UniProt Q9Y483: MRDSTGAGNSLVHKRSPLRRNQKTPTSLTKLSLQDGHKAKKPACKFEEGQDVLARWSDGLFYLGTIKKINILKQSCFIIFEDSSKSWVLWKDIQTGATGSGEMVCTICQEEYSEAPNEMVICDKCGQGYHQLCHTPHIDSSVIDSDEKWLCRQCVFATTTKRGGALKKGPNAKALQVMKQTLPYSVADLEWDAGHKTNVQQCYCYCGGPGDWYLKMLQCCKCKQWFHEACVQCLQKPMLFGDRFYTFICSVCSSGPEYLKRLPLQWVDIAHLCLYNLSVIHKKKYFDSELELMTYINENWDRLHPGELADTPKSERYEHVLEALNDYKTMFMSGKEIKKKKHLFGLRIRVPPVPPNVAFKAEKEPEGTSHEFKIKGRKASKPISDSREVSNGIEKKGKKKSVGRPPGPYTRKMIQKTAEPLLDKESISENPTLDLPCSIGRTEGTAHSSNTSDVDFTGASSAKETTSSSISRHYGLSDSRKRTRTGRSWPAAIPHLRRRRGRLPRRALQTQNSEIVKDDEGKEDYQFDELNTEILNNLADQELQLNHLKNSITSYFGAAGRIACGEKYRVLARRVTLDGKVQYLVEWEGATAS
UniProt P11586, whole entry, looked up: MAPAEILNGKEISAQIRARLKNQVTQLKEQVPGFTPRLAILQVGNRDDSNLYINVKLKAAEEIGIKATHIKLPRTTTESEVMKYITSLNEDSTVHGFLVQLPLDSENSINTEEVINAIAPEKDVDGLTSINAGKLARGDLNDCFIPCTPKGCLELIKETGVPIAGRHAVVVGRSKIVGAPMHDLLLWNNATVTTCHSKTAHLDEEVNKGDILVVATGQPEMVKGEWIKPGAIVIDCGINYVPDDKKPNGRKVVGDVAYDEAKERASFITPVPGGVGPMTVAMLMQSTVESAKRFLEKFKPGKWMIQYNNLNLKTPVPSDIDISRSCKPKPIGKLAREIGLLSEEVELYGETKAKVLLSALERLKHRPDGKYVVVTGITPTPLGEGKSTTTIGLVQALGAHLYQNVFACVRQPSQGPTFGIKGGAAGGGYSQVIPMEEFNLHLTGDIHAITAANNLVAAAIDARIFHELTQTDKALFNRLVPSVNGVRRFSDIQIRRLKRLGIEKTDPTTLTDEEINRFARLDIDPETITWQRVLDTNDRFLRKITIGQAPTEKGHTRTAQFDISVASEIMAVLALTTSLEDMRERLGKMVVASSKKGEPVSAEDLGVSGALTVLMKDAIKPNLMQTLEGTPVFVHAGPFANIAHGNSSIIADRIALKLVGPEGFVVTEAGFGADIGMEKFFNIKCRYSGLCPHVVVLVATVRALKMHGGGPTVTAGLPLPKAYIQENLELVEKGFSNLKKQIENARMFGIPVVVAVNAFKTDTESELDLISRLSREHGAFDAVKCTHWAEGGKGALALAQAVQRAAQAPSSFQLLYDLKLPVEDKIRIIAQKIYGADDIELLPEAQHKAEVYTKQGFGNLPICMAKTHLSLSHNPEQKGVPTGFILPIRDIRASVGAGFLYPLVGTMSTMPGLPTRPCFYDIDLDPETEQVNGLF
UniProt P43246, whole entry, looked up: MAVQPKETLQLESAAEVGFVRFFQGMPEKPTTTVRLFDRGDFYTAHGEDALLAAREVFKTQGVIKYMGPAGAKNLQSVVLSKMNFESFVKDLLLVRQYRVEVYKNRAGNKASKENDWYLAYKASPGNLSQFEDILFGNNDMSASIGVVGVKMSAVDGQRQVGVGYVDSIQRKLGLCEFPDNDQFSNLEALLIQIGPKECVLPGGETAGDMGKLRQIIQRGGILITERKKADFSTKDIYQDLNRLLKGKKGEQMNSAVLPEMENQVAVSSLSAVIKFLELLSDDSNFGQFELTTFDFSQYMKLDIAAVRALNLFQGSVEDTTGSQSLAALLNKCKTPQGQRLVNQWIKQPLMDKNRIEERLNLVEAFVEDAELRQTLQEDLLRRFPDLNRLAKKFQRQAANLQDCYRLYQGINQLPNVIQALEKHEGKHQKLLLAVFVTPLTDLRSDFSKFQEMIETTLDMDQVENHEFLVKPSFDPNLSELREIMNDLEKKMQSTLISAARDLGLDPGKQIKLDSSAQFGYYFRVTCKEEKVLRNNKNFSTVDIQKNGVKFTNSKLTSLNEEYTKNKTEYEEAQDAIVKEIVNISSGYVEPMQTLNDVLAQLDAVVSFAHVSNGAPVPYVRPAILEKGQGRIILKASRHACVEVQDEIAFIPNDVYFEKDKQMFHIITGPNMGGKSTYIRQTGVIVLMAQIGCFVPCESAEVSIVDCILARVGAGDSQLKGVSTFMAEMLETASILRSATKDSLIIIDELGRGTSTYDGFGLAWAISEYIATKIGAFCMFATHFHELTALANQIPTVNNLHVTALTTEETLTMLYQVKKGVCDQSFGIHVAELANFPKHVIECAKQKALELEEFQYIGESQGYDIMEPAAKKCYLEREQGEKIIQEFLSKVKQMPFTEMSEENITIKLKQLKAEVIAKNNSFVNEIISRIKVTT
UniProt Q14764, whole entry, looked up: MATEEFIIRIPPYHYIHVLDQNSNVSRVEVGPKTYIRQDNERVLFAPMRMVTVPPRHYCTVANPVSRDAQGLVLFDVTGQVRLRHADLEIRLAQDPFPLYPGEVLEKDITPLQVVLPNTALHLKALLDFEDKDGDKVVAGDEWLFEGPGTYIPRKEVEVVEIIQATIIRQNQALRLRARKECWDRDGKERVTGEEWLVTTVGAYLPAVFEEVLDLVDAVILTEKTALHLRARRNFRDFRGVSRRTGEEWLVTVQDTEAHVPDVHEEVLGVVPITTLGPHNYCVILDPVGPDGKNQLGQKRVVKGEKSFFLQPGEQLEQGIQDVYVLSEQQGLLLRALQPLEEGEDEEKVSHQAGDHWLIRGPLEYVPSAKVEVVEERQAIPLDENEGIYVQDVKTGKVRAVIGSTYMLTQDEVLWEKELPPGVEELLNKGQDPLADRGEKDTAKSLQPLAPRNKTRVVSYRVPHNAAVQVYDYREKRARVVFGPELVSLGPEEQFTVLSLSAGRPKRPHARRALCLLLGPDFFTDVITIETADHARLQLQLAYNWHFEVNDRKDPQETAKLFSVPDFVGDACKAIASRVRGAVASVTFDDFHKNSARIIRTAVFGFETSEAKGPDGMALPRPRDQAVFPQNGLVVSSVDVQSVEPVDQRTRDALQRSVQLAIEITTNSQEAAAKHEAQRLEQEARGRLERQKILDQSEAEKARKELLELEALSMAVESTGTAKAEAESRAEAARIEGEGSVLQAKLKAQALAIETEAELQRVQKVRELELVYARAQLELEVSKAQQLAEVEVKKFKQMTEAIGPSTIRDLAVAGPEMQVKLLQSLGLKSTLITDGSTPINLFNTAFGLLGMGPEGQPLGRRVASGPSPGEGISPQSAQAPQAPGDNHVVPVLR
UniProt Q99836, whole entry, looked up: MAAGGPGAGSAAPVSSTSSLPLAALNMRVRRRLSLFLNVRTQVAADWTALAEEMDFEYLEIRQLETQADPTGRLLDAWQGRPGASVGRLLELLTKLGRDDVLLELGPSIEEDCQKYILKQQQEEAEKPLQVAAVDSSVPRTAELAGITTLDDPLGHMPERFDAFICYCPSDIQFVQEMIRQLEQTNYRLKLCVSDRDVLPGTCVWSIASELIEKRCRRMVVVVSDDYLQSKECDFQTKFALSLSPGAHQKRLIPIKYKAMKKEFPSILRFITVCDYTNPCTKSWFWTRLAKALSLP
UniProt P35579, whole entry, looked up: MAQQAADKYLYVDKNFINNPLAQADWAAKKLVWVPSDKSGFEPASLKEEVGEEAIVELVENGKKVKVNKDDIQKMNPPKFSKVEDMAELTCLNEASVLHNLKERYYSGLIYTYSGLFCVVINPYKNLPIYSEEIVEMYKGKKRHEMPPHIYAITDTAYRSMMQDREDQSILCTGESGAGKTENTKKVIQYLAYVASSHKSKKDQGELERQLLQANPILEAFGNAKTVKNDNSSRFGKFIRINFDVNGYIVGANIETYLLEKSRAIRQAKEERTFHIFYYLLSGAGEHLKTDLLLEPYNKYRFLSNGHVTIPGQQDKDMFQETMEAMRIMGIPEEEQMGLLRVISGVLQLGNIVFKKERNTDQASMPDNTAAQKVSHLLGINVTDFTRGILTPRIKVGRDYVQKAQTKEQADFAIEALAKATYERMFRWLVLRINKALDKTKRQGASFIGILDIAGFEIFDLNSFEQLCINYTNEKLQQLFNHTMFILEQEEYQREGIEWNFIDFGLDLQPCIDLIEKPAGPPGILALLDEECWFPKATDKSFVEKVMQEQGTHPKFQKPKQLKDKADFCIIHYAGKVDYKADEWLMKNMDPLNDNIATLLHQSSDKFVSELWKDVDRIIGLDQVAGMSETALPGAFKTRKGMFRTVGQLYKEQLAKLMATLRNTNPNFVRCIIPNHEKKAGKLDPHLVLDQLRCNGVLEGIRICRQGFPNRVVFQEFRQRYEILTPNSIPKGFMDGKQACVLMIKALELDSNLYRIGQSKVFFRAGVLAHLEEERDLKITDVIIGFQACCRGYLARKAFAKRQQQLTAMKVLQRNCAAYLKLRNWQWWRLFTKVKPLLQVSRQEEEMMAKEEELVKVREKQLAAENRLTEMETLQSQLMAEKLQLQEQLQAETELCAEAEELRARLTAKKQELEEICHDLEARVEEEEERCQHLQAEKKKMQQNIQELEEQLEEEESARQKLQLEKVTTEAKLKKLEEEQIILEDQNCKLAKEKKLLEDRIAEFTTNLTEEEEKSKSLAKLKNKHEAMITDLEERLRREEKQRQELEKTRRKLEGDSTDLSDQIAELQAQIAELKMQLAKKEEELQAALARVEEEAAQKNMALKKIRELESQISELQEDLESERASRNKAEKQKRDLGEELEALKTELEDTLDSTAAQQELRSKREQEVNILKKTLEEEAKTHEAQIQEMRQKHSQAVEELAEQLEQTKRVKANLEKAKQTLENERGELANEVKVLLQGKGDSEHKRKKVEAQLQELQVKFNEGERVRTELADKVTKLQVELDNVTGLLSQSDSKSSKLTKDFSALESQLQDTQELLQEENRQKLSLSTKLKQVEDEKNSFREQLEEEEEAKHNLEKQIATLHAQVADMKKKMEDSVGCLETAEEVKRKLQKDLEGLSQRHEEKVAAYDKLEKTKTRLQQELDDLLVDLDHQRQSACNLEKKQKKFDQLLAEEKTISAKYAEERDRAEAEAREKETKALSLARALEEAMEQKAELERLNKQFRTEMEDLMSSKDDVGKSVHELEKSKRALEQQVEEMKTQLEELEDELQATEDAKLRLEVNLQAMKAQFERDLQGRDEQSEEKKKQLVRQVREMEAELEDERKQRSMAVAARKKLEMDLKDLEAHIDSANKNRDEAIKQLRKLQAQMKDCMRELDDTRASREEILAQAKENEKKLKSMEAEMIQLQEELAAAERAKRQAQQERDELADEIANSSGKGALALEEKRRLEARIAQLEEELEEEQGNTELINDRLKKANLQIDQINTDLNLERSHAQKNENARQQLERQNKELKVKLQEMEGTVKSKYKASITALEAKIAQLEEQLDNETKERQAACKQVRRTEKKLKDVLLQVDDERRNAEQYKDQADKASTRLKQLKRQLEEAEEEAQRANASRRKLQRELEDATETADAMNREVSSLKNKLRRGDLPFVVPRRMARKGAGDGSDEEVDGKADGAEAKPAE
UniProt P58546, whole entry, looked up: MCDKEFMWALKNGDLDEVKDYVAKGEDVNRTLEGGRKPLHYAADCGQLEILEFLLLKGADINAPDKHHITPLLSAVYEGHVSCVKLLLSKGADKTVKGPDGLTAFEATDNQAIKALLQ
UniProt Q9Y217: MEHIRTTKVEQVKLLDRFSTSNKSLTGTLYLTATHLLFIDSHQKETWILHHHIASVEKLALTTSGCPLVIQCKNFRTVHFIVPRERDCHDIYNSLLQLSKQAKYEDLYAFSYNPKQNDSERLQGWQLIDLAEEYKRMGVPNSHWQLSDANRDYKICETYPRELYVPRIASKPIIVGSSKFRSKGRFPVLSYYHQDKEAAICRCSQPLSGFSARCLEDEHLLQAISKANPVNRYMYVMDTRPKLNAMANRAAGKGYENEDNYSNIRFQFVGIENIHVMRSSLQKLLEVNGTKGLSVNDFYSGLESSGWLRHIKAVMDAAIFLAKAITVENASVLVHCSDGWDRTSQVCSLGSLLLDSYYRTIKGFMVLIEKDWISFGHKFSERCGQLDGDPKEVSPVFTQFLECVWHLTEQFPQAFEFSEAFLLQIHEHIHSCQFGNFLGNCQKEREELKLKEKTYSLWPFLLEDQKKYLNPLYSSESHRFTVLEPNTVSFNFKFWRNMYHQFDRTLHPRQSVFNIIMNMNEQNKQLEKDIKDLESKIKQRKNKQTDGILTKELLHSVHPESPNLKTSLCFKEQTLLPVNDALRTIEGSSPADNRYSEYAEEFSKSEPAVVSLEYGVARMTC
UniProt Q9Y3D2: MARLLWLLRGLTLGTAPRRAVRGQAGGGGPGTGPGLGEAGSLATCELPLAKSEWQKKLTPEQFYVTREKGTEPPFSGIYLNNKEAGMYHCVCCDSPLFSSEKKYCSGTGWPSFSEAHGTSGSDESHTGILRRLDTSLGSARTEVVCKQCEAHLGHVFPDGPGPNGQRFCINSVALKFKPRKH

Compound: Cc1cc(ccc1-c1ccccc1)C(=O)N1CCCN(CC1)C(=O)CCl [compound 10]
Test: probe-labelled cysteine peptide fold change vs DMSO (competition) (log2 fold change); higher = less target engagement (more negative = stronger competition)
Details: THP-1, incubation time: 4 h
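Note: competitive profiling in live THP-1 cells: cysteine peptides tagged with an iodoacetamide desthiobiotin (IA-DTB) probe, intensity after compound treatment relative to DMSO-treated cells.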

Target	probe-labelled cysteine peptide fold change (10 µM)	probe-labelled cysteine peptide fold change (50 µM)
MTA2_O94776_106_CSVTLLNETDILSQYLEK (UniProt O94776)	0.183	0.107
MYH10_P35580_176_CMLQDREDQSILCTGESGAGK (UniProt P35580)	-0.0995	0.342
MTX2_O75431_246_NYSNLLAFCR (UniProt O75431)	-0.0151	0.197
MRPS30_Q9NP92_204_CPVHFYWVR (UniProt Q9NP92)	0.202	0.164
MTF2_Q9Y483_220_MLQCCK (UniProt Q9Y483)	-0.0988	-0.354
MTHFS_P49914_180_EQICLQVPVNENDMK (UniProt P49914)	0.217	0.276
MSH3_P20585_274_ELNIYCHLDHNFMTASIPTHR (UniProt P20585)	-0.0498	0.018
MTHFD1_P11586_326_SCKPKPIGK (UniProt P11586)	-0.217	-1
MSH2_P43246_404_QAANLQDCYR (UniProt P43246)	0.064	0.0941
MYCBP2_O75592_4652_QLEGTECPLHVVHPPTGEEFALGCGVCR (UniProt O75592)	0.104	-0.0919
MRPS18A_Q9NVS2_108_KITGLCQEEHR (UniProt Q9NVS2)	-0.0907	0.092
MYCBP2_O75592_505_CLHACGISLFDLEK (UniProt O75592)	0.122	0.236
MTHFD1_P11586_691_YSGLCPHVVVLVATVR (UniProt P11586)	-0.297	-0.11
MVP_Q14764_59_HYCTVANPVSR (UniProt Q14764)	-0.0627	0.0233
MYD88_Q99836_203_LCVSDRDVLPGTCVWSIASELIEK (UniProt Q99836)	0.307	-0.566
MUM1_Q2TAK8_548_GSPEEPVVGCPLGQR (UniProt Q2TAK8)	-0.198	-0.786
MSH6_P52701_783_QWLCAPLCNHYAINDRLDAIEDLMVVPDK (UniProt P52701)	-0.0798	-0.389
MTG1_Q9BT17_113_NVIFTNCVK (UniProt Q9BT17)	0.00792	0.0767
MTMR2_Q13614_155_GENSYGLETVCK (UniProt Q13614)	-0.124	0.059

Target	probe-labelled cysteine peptide fold change (10 µM)	probe-labelled cysteine peptide fold change (50 µM)
MYCBP2_O75592_2044_VTFPECVR (UniProt O75592)	0.131	-0.0129
MTFMT_Q96DP5_365_NSQAQPSQCR (UniProt Q96DP5)	-0.186	-0.202
MYO18A_Q92614_1046_LHFVHCFLPVAEGWAGEPR (UniProt Q92614)	0.205	0.269
MYH9_P35579_671_CIIPNHEKK (UniProt P35579)	-0.188	-1.18
MTHFR_P42898_452_VTCLPWNDEPLAAETSLLK (UniProt P42898)	0.00805	0.234
MTERF3_Q96E29_399_LVSIPDEIFCEEIAK (UniProt Q96E29)	-0.0337	-0.21
MSH2_P43246_641_HACVEVQDEIAFIPNDVYFEK (UniProt P43246)	-0.0635	0.293
MTREX_P42285_650_YCLPFLQPGR (UniProt P42285)	0.122	0.266
MTPN_P58546_83_HHITPLLSAVYEGHVSCVK (UniProt P58546)	0.213	-0.513
MTMR6_Q9Y217_156_ICETYPR (UniProt Q9Y217)	-0.0558	0.0889
MTHFD1_P11586_236_GEWIKPGAIVIDCGINYVPDDK (UniProt P11586)	0.183	0.298
MYH9_P35579_789_ITDVIIGFQACCR (UniProt P35579)	-0.109	-0.0345
MRPS6_P82932_105_ECEGIVPVPLAEK (UniProt P82932)	-0.316	0.0101
MUS81_Q96NY9_16_KRPLPACPNPLFVR (UniProt Q96NY9)	-0.274	-0.241
MYBL2_P10244_196_DCKPPVYLLLELEDK (UniProt P10244)	0.134	0.229
MSRB2_Q9Y3D2_149_QCEAHLGHVFPDGPGPNGQR (UniProt Q9Y3D2)	-0.273	-0.593
MYCBP2_O75592_1516_ILSEGVDHCMVK (UniProt O75592)	0.145	-0.337
MTMR6_Q9Y217_383_CGQLDGDPK (UniProt Q9Y217)	0.14	0.0321

8 neighbouring entries already listed, quoted:
Target	probe-labelled cysteine peptide fold change (10 µM)	probe-labelled cysteine peptide fold change (50 µM)
MTHFD1_P11586_326_SCKPKPIGK (UniProt P11586)	-0.217	-1
MSH2_P43246_404_QAANLQDCYR (UniProt P43246)	0.064	0.0941
MYCBP2_O75592_4652_QLEGTECPLHVVHPPTGEEFALGCGVCR (UniProt O75592)	0.104	-0.0919
MRPS18A_Q9NVS2_108_KITGLCQEEHR (UniProt Q9NVS2)	-0.0907	0.092
MYCBP2_O75592_505_CLHACGISLFDLEK (UniProt O75592)	0.122	0.236
MTHFD1_P11586_691_YSGLCPHVVVLVATVR (UniProt P11586)	-0.297	-0.11
MVP_Q14764_59_HYCTVANPVSR (UniProt Q14764)	-0.0627	0.0233
MYD88_Q99836_203_LCVSDRDVLPGTCVWSIASELIEK (UniProt Q99836)	0.307	-0.566
